Source: article PMC6685081
These are yes or no findings as the source states them, for the method shown. Binding seen in cells or lysates may run through a third protein. Some binding calls cover weakened binding; strength is not graded here.

Chains of the proteins cited; added tags and fusions are not shown. Residues count along the entry.
UniProt O60260: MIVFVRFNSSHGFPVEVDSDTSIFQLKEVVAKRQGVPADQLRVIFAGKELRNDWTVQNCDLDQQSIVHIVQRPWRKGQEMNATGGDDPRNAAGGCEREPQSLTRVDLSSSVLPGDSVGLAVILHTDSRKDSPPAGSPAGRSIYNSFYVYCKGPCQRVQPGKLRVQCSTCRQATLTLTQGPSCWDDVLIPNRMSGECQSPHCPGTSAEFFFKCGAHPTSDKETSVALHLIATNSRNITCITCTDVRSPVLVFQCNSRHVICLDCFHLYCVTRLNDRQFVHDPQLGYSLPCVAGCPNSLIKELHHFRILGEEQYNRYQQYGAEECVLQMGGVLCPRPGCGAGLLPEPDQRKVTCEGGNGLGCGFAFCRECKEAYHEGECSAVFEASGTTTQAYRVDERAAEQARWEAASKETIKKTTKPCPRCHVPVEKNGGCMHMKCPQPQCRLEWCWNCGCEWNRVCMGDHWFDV
UniProt Q9Y3D2, residues 21-182: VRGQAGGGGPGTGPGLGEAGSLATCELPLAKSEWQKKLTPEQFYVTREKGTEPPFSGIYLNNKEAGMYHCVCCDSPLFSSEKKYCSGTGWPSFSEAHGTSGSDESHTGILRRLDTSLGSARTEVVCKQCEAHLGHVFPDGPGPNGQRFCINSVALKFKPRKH

Assays:
[1] = biological target: Parkin (human (endogenous in platelets)) (UniProt O60260); assay: co-IP; healthy control and DM human platelet lysates with the specific antibody (MsrB2 or Parkin) overnight at 4°C, protein A/G sepharose beads 1 h at 4°C, three washes with lysis buffer, Western blot
[2] = biological target: methionine sulfoxide reductase B2 (MsrB2) (human (endogenous in platelets)) (UniProt Q9Y3D2); assay: as above

binding [1] | binding [2] | Substance
binds | – | methionine sulfoxide reductase B2 (MsrB2) (from UniProt Q9Y3D2 21-182)
– | binds | Parkin (from UniProt O60260 1-465)
